About 95 (3%) of roughly 3,300 compounds showed an effect of 50% or more. The list shows a part of the results.
These compounds were tested on HCoV-229E. Conditions: 24 h post infection, 1 h compound pre-incubation; 10 µM; inhibitor.
Set-up: species or system Huh-7; HTS, protection from HCoV-229E induced cell death, luminescent cell viability (CellCounting-Lite 2.0), inhibition rate

Structure (SMILES) | 229E Inhibition rate
COC(=S)NCc1ccc(O[C@@H]2O[C@@H](C)[C@H](O)[C@@H](O)[C@H]2O)cc1 [Niazinin] | 11.1%
COc1cc(O)cc2oc(-c3ccc(O)c(O)c3)c(O)c(=O)c12 [Azaleatin] | 12.4%
CCCCC[C@H](O)/C=C/[C@@H]1[C@@H](C/C=C\CCCC(=O)O)[C@@H](O)C[C@H]1O [Dinoprost] | 23.2%
O=c1cc(-c2ccc(O)cc2)oc2c([C@@H]3OC[C@@H](O)[C@H](O)[C@H]3O)c(O)c([C@@H]3O[C@H](CO)[C@@H](O)[C@H](O)[C@H]3O)c(O)c12 [Vicenin 3] | 40.7%
CC(C)=CCC[C@](C)(O[C@@H]1O[C@H](CO[C@@H]2O[C@@H](CO)[C@H](O)[C@H]2O)[C@@H](O)[C@H](O)[C@H]1O)[C@H]1CC[C@]2(C)[C@@H]1[C@H](O)C[C@@H]1[C@@]3(C)CC[C@H](O[C@@H]4O[C@H](CO)[C@@H](O)[C@H](O)[C@H]4O[C@@H]4O[C@H](CO)[C@@H](O)[C@H](O)[C@H]4O)C(C)(C)[C@@H]3CC[C@]12C [Ginsenoside Rc] | 12.8%
CC(C)=CC(O)C/C(C)=C/COc1c2ccoc2cc2oc(=O)ccc12 (stereo not drawn) [Notopterol] | 25%
O=c1[nH]cnc2c1ncn2[C@H]1C[C@H](O)[C@@H](CO)O1 [2'-Deoxyinosine] | 16.4%
CCCCCCCCCCC(=O)O [Undecanoic acid] | 5.6%
C[C@@H]1O[C@@H](Oc2cc(O)c3c(=O)c(O)c(-c4ccc(O)c(O)c4)oc3c2)[C@H](O)[C@H](O)[C@H]1O [Vincetoxicoside B] | 12.7%
C/C=C1/[C@H](O[C@@H]2O[C@H](CO)[C@@H](O)[C@H](O)[C@H]2O)OC=C(C(=O)OC)[C@H]1CC(=O)OCCc1ccc(O)c(O)c1 [Oleuropein] | 11.8%
CC(CC(=O)C[C@@H](C)[C@H]1CC(=O)[C@@]2(C)C3=C(C(=O)[C@@H](O)[C@]12C)[C@@]1(C)CC[C@H](O)C(C)(C)[C@@H]1C[C@@H]3O)C(=O)O (stereo partly drawn) [Ganoderic acid G] | 18.6%
Cc1cc(=O)oc2cc(O)ccc12 [4-Methylumbelliferone] | 39.1%
COC[C@@H](Cc1ccc(OC)c(OC)c1)[C@@H](COC)Cc1ccc(OC)c(OC)c1 [Phyllanthin] | 22.8%
CCCCCCCCCC(O)CC(=O)O (stereo not drawn) [3-Hydroxydodecanoic acid] | 9.4%
COc1cc2c(cc1OC)[C@@H](Cc1ccc(Oc3cc(C[C@@H]4c5cc(OC)c(OC)cc5CCN4C)ccc3O)cc1)N(C)CC2 [Dauricine] | 3.6%

A second format for 2 compounds above:
Structure (SMILES),229E Inhibition rate
CC(C)=CCC[C@](C)(O[C@@H]1O[C@H](CO[C@@H]2O[C@@H](CO)[C@H](O)[C@H]2O)[C@@H](O)[C@H](O)[C@H]1O)[C@H]1CC[C@]2(C)[C@@H]1[C@H](O)C[C@@H]1[C@@]3(C)CC[C@H](O[C@@H]4O[C@H](CO)[C@@H](O)[C@H](O)[C@H]4O[C@@H]4O[C@H](CO)[C@@H](O)[C@H](O)[C@H]4O)C(C)(C)[C@@H]3CC[C@]12C [Ginsenoside Rc],12.8%
CC(C)=CC(O)C/C(C)=C/COc1c2ccoc2cc2oc(=O)ccc12 (stereo not drawn) [Notopterol],25%

— article PMC12431657, “Discovery and mechanistic insights of dibenzoylmethane as a broad spectrum inhibitor of coronavirus” (PLOS Pathogens, 2025)
